Reference: the supplement of paper PMC5836539
± gives the standard deviation of the averaged measurements. Most values lie within the scatter of the assay; repeated measurements hardly agree.

The chains behind the UniProt entries cited, without tags or fusion partners. Where a name states a change or a piece, a line headed by the entry shows the natural chain unless it says otherwise.
UniProt P78371: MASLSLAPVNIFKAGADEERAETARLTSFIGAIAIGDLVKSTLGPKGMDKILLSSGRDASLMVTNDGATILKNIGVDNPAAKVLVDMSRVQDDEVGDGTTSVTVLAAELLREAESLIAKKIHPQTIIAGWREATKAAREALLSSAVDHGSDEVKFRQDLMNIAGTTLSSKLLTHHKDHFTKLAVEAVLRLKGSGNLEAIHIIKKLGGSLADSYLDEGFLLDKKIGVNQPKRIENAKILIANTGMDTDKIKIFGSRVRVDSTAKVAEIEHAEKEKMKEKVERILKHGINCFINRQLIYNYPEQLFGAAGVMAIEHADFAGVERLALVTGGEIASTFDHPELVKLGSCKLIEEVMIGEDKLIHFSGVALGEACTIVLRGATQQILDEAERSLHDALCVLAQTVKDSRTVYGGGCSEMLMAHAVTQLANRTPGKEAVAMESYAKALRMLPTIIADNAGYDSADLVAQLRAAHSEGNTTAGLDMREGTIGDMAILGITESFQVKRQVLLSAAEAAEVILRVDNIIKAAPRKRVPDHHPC
UniProt O95400: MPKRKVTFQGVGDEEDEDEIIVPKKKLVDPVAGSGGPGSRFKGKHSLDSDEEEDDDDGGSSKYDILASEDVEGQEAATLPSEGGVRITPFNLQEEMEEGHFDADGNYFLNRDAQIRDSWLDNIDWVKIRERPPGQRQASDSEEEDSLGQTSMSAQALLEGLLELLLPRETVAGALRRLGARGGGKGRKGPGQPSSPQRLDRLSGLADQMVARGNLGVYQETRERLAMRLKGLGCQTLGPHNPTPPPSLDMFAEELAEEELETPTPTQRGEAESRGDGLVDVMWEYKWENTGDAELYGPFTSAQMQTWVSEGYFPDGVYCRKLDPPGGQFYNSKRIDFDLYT
UniProt Q5SW79: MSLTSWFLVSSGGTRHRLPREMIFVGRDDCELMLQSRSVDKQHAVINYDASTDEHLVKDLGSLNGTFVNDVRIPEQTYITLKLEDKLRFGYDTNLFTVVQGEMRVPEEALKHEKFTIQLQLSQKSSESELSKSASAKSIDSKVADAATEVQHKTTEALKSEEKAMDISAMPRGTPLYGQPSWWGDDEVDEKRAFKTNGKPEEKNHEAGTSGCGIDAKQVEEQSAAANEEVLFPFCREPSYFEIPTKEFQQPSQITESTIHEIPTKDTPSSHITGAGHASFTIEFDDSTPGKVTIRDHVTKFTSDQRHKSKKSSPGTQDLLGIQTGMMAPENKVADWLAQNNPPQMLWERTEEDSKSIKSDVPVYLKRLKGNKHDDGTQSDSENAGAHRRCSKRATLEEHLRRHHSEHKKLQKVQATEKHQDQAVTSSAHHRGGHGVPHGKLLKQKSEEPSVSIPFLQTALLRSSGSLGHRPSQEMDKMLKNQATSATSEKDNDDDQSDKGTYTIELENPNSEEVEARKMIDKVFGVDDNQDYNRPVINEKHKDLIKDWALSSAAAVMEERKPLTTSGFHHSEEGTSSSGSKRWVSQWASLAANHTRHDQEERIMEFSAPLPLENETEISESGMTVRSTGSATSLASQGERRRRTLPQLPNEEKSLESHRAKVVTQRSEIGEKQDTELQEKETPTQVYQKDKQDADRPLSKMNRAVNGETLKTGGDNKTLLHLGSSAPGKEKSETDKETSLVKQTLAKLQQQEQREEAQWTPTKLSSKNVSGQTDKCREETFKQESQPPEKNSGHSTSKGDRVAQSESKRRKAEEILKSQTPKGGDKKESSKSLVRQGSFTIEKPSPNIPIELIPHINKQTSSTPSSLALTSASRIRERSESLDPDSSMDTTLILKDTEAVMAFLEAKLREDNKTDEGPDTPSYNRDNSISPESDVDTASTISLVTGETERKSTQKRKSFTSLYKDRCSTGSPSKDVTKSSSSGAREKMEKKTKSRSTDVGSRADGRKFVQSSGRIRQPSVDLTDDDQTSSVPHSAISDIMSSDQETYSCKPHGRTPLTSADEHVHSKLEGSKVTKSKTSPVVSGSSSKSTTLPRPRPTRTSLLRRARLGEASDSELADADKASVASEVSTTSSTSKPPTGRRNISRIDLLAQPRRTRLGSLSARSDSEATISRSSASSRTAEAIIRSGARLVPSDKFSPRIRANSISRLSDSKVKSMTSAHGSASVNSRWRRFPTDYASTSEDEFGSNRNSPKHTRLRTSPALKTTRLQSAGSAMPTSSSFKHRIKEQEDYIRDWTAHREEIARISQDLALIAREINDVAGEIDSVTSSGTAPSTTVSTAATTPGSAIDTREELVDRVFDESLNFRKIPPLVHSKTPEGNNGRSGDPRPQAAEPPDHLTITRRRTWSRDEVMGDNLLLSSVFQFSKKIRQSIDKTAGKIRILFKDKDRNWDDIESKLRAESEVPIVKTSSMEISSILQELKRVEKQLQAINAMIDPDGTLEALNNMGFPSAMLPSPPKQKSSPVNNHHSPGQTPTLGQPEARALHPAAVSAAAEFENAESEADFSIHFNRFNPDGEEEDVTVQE
UniProt P26358: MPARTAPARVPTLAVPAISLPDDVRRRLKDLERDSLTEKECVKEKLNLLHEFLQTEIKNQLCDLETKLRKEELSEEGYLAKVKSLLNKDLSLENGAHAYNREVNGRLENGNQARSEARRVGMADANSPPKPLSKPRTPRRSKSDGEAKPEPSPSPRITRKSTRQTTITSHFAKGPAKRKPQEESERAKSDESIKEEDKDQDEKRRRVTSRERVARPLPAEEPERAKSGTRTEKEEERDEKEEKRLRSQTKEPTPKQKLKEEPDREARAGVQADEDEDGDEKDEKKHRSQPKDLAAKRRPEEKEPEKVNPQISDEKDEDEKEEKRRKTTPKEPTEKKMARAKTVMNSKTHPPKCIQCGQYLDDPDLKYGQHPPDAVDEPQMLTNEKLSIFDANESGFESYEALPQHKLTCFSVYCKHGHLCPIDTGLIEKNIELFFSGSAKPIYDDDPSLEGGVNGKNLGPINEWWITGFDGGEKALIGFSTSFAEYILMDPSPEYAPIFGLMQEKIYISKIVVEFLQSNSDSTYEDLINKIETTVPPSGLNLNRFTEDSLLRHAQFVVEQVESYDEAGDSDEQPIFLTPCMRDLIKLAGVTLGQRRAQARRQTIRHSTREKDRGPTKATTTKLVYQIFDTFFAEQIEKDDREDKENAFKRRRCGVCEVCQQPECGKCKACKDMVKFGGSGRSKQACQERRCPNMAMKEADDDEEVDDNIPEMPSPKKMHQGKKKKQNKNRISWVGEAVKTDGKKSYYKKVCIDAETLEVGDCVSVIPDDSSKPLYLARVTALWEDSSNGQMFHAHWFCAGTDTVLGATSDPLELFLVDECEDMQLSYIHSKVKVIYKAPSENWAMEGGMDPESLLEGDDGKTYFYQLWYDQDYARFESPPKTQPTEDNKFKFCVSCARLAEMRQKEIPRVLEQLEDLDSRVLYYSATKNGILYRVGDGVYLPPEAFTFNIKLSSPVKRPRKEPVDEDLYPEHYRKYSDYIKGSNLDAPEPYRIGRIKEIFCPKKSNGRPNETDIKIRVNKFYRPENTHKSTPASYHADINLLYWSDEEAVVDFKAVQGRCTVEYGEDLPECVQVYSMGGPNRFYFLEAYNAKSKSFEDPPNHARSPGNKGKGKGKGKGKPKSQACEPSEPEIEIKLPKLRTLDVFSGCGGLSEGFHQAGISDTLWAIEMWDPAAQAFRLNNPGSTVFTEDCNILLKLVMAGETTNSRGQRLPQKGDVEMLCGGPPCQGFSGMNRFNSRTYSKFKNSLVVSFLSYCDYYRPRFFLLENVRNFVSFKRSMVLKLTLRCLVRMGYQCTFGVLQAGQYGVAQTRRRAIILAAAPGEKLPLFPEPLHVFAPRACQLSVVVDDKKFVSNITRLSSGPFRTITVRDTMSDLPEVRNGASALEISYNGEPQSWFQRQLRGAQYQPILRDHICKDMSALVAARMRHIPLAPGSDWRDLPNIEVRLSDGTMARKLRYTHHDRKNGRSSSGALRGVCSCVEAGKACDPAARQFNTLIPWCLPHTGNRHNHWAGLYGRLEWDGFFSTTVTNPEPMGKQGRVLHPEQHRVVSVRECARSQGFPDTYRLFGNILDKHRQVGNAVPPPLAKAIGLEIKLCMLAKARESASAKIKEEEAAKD
UniProt P06733, whole entry, looked up: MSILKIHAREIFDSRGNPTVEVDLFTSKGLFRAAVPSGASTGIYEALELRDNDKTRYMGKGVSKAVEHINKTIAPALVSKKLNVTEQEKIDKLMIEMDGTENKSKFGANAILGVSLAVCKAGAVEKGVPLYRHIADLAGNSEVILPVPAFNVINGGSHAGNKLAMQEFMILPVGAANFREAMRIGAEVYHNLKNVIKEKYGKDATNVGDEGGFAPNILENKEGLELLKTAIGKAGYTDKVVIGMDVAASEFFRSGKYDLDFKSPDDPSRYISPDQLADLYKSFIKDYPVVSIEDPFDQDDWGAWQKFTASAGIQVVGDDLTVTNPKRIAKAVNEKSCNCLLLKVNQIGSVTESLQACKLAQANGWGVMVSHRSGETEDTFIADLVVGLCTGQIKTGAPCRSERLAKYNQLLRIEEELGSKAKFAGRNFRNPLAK
UniProt Q7Z309: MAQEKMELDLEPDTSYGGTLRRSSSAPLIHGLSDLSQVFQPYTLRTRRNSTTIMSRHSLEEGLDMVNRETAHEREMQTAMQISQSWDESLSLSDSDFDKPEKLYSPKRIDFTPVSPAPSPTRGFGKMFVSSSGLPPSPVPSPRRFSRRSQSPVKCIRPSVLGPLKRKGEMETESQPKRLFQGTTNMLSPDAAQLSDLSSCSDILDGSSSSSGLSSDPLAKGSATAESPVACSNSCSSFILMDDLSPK
UniProt P04406: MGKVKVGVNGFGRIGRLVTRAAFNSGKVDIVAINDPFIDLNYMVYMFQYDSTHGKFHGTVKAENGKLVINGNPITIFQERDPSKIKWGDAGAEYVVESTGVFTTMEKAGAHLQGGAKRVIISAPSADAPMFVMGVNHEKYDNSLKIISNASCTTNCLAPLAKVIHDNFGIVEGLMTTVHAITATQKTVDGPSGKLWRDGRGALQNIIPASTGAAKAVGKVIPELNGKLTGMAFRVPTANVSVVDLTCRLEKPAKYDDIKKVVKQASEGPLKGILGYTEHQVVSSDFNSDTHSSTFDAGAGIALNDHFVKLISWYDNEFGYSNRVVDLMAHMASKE
UniProt O00178: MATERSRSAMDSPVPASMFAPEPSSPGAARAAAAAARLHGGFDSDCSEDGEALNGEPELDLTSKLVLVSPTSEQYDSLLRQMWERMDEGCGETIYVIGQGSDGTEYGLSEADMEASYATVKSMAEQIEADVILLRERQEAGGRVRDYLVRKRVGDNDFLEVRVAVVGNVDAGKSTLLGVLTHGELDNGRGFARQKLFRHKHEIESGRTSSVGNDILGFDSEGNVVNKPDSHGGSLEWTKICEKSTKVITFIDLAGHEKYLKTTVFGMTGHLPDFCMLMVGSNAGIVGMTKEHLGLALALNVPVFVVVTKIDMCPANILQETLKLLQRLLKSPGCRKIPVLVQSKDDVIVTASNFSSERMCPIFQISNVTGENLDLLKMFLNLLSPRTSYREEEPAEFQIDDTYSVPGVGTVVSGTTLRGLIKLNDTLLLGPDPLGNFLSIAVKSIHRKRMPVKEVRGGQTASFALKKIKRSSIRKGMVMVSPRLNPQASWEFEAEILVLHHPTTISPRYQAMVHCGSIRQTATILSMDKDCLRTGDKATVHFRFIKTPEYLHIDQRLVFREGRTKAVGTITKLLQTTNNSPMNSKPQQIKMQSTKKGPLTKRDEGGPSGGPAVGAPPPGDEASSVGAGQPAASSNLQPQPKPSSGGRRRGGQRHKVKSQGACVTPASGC
UniProt Q00839, whole entry: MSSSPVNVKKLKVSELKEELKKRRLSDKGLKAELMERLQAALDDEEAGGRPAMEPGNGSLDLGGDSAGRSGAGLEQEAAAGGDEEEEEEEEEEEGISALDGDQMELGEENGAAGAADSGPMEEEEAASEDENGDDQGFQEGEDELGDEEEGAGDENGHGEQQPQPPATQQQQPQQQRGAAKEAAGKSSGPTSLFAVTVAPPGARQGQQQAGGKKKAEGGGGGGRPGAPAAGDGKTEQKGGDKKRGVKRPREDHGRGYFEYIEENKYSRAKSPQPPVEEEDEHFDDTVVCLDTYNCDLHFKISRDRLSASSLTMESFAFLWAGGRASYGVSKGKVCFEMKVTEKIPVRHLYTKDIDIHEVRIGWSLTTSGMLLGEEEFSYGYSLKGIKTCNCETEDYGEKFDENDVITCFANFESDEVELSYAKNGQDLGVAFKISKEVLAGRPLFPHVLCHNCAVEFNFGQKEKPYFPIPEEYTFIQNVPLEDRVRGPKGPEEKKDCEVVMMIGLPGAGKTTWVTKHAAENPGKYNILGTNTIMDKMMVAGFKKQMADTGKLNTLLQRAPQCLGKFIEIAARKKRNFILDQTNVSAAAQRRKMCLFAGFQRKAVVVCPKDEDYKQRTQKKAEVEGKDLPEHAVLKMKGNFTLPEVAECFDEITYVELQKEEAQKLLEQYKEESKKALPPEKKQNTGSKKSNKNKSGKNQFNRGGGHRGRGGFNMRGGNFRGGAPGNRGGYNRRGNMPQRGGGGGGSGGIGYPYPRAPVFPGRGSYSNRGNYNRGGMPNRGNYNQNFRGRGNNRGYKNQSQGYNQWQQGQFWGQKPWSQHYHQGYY

Compound: CC[C@@H](C)Nc1cc(C(=O)N[C@H]2C[C@H]3CC[C@@H](C2)N3c2ccc(C(=O)C3CC3)cn2)c(C)cc1C(N)=O [XL888]
Assay: phosphopeptide melting temperature shift (XL888 minus DMSO); higher = stabilised by drug treatment
Conditions: 100 µM; treatment time 2 h; layout: intact cells; SK-Mel 24
Procedure: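 Phospho-TPP in intact SK-Mel 24 cells treated with 100 uM XL888 or DMSO for 2 h, heated at 10 temperatures (37-67 C) for 3 min, soluble fraction TMT10plex-labelled and TiO2 phospho-enriched. Melting curves were fitted per phosphopeptide; the value is the melting point difference (drug minus vehicle) in each of two biological replicates.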

Target	phosphopeptide melting temperature shift [°C]
C5orf30 phosphosite_25 (phosphosite position: 25) (UniProt Q96GV9)	1.19
C11orf96 phosphosite_399 (phosphosite position: 399) (UniProt Q7Z7L8)	-0.182 ± 0.039
C17orf75 phosphosite_18 (phosphosite position: 18) (UniProt Q9HAS0)	0.512
CANX phosphosite_564 (phosphosite position: 564) (UniProt P27824)	3.55
CCT2 phosphosite_260 (phosphosite position: 260) (UniProt P78371)	-0.563
CD2BP2 phosphosite_49 (phosphosite position: 49) (UniProt O95400)	2.56
CEP170 phosphosite_379 (phosphosite position: 379) (UniProt Q5SW79)	1.32
CEP170 phosphosite_958 (phosphosite position: 958) (UniProt Q5SW79)	-1.19
CEP170 phosphosite_1165 (phosphosite position: 1165) (UniProt Q5SW79)	0.282
CTNNA1 phosphosite_641 (phosphosite position: 641) (UniProt P35221)	0.17
DIDO1 phosphosite_1714 (phosphosite position: 1714) (UniProt Q9BTC0)	-0.96
DNMT1 phosphosite_143 (phosphosite position: 143) (UniProt P26358)	2.57
EEF2 phosphosite_57 (phosphosite position: 57) (UniProt P13639)	1.48 ± 1.3
EIF5B phosphosite_164 (phosphosite position: 164) (UniProt O60841)	0.679
EML3 phosphosite_176 (phosphosite position: 176) (UniProt Q32P44)	-0.845
EML4 phosphosite_176 (phosphosite position: 176) (UniProt Q9HC35)	0.97
ENO1 phosphosite_27 (phosphosite position: 27) (UniProt P06733)	-0.595
ENO1 phosphosite_263 (phosphosite position: 263) (UniProt P06733)	1.2 ± 1.2
ENO1 phosphosite_272 (phosphosite position: 272) (UniProt P06733)	-2.44
ENO1 phosphosite_419 (phosphosite position: 419) (UniProt P06733)	-1.62
EPS15L1 phosphosite_253 (phosphosite position: 253) (UniProt Q9UBC2)	0.603
FAM53C phosphosite_122 (phosphosite position: 122) (UniProt Q9NYF3)	0.504
FAM122B phosphosite_50 (phosphosite position: 50) (UniProt Q7Z309)	1.91
FASN phosphosite_2204 (phosphosite position: 2204) (UniProt P49327)	-0.173 ± 0.13
GAPDH phosphosite_210 (phosphosite position: 210) (UniProt P04406)	-0.0667
GAPDH phosphosite_211 (phosphosite position: 211) (UniProt P04406)	1.76
GTPBP1 phosphosite_25 (phosphosite position: 25) (UniProt O00178)	-0.0797
HNRNPU phosphosite_271 (phosphosite position: 271) (UniProt Q00839)	-1.53 ± 0.18
HNRNPUL2 phosphosite_161 (phosphosite position: 161) (UniProt Q1KMD3)	-0.435

Another view of some results above.
Target | phosphopeptide melting temperature shift [°C]
CANX phosphosite_564 (phosphosite position: 564) (UniProt P27824) | 3.55
CCT2 phosphosite_260 (phosphosite position: 260) (UniProt P78371) | -0.563
